No constants are given. Whether binding was seen depends on the method and setting. In cells and extracts the contact can be indirect. Some entries that bind do so weakly or less than the wild type.

This experiment concerns the target T1, CSTF2 (human (endogenous in MCF7)) (UniProt P33240).
T1 sequence: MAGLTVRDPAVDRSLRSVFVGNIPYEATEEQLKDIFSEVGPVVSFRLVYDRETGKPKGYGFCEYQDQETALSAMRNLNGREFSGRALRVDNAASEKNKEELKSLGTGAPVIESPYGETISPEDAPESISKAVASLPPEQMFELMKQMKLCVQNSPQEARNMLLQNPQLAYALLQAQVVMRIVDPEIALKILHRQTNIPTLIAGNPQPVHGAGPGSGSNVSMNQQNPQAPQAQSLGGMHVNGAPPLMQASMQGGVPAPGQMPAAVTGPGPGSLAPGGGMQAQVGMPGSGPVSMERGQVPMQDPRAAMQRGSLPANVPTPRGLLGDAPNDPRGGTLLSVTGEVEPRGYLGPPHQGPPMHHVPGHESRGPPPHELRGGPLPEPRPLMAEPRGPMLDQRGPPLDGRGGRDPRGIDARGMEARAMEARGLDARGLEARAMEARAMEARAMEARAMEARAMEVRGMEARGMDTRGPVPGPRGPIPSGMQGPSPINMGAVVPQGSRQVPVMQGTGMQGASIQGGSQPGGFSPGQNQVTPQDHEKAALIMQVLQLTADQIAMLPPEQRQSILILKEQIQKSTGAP
Kind of experiment: co-IP; untransfected MCF7 cells, nuclear extracts (500 µg), immunoprecipitation with CSTF2 antibody or isotype-matched IgG on Protein A/G magnetic beads, immunoblot with CSTF2 and ADAR1 antibodies. Background: A western blot detects proteins with antibodies after separation by electrophoresis.

B1: ADAR1 (protein, UniProt P55265 1-1226)
chain: MNPRQGYSLSGYYTHPFQGYEHRQLRYQQPGPGSSPSSFLLKQIEFLKGQLPEAPVIGKQTPSLPPSLPGLRPRFPVLLASSTRGRQVDIRGVPRGVHLRSQGLQRGFQHPSPRGRSLPQRGVDCLSSHFQELSIYQDQEQRILKFLEELGEGKATTAHDLSGKLGTPKKEINRVLYSLAKKGKLQKEAGTPPLWKIAVSTQAWNQHSGVVRPDGHSQGAPNSDPSLEPEDRNSTSVSEDLLEPFIAVSAQAWNQHSGVVRPDSHSQGSPNSDPGLEPEDSNSTSALEDPLEFLDMAEIKEKICDYLFNVSDSSALNLAKNIGLTKARDINAVLIDMERQGDVYRQGTTPPIWHLTDKKRERMQIKRNTNSVPETAPAAIPETKRNAEFLTCNIPTSNASNNMVTTEKVENGQEPVIKLENRQEARPEPARLKPPVHYNGPSKAGYVDFENGQWATDDIPDDLNSIRAAPGEFRAIMEMPSFYSHGLPRCSPYKKLTECQLKNPISGLLEYAQFASQTCEFNMIEQSGPPHEPRFKFQVVINGREFPPAEAGSKKVAKQDAAMKAMTILLEEAKAKDSGKSEESSHYSTEKESEKTAESQTPTPSATSFFSGKSPVTTLLECMHKLGNSCEFRLLSKEGPAHEPKFQYCVAVGAQTFPSVSAPSKKVAKQMAAEEAMKALHGEATNSMASDNQPEGMISESLDNLESMMPNKVRKIGELVRYLNTNPVGGLLEYARSHGFAAEFKLVDQSGPPHEPKFVYQAKVGGRWFPAVCAHSKKQGKQEAADAALRVLIGENEKAERMGFTEVTPVTGASLRRTMLLLSRSPEAQPKTLPLTGSTFHDQIAMLSHRCFNTLTNSFQPSLLGRKILAAIIMKKDSEDMGVVVSLGTGNRCVKGDSLSLKGETVNDCHAEIISRRGFIRFLYSELMKYNSQTAKDSIFEPAKGGEKLQIKKTVSFHLYISTAPCGDGALFDKSCSDRAMESTESRHYPVFENPKQGKLRTKVENGEGTIPVESSDIVPTWDGIRLGERLRTMSCSDKILRWNVLGLQGALLTHFLQPIYLKSVTLGYLFSQGHLTRAICCRVTRDGSAFEDGLRHPFIVNHPKVGRVSIYDSKRQSGKTKETSVNWCLADGYDLEILDGTRGTVDGPRNELSRVSKKNIFLLFKKLCSFRYRRDLLRLSYGEAKKAARDYETAKNYFKKGLKDMGYGNWISKPQEEKNFYLCPV
With B1, the binding entry is listed as “binds”.

Source of the values: paper PMC12085317.
